Source: publication PMC4022406
Results are given in words; binding and its absence hold for the method and conditions named. In cells and extracts the contact can be indirect. Some binding calls cover weakened binding; strength is not graded here. Blank lines part the entries; values can stand above or below the molecule they belong to.

Chains of the proteins cited; added tags and fusions are not shown.
UniProt P02340: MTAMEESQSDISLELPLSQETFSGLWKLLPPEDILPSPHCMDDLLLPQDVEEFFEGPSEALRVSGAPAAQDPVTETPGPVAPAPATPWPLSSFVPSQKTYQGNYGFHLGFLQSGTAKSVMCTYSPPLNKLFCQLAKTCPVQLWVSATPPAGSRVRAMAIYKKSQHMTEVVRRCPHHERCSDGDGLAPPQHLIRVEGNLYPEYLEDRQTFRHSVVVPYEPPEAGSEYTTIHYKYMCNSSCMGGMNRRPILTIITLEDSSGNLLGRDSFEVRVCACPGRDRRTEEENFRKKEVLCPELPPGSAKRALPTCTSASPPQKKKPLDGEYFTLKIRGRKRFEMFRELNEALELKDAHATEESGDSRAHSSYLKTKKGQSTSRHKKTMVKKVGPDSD
UniProt P03372: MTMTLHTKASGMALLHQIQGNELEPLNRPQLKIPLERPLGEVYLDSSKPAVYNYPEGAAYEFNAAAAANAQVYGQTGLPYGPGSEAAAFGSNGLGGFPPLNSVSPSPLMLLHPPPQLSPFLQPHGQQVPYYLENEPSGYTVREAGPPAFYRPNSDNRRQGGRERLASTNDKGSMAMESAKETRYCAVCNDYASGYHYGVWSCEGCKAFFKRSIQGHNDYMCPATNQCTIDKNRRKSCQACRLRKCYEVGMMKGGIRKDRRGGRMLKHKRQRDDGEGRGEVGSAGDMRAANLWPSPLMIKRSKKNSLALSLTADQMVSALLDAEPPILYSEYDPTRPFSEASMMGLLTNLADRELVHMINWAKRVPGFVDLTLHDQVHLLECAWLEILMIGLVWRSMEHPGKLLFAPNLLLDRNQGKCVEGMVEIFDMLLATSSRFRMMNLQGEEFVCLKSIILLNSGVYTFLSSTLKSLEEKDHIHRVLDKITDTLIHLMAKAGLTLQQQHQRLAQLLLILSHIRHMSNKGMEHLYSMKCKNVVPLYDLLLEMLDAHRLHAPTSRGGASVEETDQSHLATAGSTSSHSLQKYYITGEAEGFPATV

Target: GST-fused wild-type mouse p53 (mouse) (UniProt P02340)
Test: pull-down; 35S-labeled ER or TR translated in vitro, incubated with bead-bound GST-p53 fusion proteins, without or with hormone (100 nM E2 for ER, 1 μM T3 for TR); SDS-PAGE, autoradiography, phosphorimager; only the target purified

binding: binds
Molecule: human estrogen receptor (hERα), in vitro translated (from UniProt P03372 1-595)

binding: binds
B1: human thyroid receptor (hTRβ1), in vitro translated (receptor, UniProt P10828 1-461)
chain: MTPNSMTENGLTAWDKPKHCPDREHDWKLVGMSEACLHRKSHSERRSTLKNEQSSPHLIQTTWTSSIFHLDHDDVNDQSVSSAQTFQTEEKKCKGYIPSYLDKDELCVVCGDKATGYHYRCITCEGCKGFFRRTIQKNLHPSYSCKYEGKCVIDKVTRNQCQECRFKKCIYVGMATDLVLDDSKRLAKRKLIEENREKRRREELQKSIGHKPEPTDEEWELIKTVTEAHVATNAQGSHWKQKRKFLPEDIGQAPIVNAPEGGKVDLEAFSHFTKIITPAITRVVDFAKKLPMFCELPCEDQIILLKGCCMEIMSLRAAVRYDPESETLTLNGEMAVTRGQLKNGGLGVVSDAIFDLGMSLSSFNLDDTEVALLQAVLLMSSDRPGLACVERIEKYQDSFLLAFEHYINYRKHHVTHFWPKLLMKVTDLRMIGACHASRFLHMKVECPTELFPPLFLEVFED
modifications: 35S-labeled
